According to the supplement of paper PMC10849652:
Some of the results follow.

Chains of the proteins cited; added tags and fusions are not shown. Lines headed by an entry give the natural chain unless they say otherwise; changes in a name come on top.
UniProt Q15653: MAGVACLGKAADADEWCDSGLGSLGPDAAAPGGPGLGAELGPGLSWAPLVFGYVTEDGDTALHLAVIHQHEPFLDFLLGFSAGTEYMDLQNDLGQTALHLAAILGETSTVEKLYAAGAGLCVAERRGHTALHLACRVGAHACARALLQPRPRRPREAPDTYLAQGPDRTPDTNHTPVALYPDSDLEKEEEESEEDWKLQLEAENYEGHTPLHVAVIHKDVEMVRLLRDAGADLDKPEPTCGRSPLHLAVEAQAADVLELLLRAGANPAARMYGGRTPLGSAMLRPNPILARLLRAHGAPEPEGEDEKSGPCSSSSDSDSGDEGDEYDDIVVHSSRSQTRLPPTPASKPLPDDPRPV
UniProt O95299, whole entry, looked up: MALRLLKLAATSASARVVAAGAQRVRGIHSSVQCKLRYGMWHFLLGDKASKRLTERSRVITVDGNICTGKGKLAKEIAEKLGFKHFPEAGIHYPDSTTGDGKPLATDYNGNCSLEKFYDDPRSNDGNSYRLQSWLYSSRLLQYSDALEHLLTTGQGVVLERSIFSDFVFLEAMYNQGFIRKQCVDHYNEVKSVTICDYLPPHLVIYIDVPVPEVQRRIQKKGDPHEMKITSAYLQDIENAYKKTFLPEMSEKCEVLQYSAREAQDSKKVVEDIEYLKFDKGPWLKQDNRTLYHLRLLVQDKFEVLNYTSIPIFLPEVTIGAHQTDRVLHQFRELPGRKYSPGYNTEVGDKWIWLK
UniProt Q8IXH7, whole entry, looked up: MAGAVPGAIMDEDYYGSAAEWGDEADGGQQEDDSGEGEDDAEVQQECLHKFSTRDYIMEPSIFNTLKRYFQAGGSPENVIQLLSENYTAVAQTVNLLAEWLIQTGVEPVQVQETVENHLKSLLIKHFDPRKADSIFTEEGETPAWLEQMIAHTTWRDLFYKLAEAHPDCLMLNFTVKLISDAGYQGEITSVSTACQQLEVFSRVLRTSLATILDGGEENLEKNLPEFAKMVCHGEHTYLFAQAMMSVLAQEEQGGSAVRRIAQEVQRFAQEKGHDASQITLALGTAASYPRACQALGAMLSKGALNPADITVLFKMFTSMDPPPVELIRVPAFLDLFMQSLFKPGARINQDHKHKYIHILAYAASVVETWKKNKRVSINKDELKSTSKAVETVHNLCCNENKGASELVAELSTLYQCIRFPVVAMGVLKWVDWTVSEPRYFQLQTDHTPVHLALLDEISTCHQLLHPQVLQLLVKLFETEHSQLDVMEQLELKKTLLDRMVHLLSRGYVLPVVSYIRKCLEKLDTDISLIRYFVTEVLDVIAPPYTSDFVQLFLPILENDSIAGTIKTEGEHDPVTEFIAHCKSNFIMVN
UniProt Q9H3P2, whole entry, looked up: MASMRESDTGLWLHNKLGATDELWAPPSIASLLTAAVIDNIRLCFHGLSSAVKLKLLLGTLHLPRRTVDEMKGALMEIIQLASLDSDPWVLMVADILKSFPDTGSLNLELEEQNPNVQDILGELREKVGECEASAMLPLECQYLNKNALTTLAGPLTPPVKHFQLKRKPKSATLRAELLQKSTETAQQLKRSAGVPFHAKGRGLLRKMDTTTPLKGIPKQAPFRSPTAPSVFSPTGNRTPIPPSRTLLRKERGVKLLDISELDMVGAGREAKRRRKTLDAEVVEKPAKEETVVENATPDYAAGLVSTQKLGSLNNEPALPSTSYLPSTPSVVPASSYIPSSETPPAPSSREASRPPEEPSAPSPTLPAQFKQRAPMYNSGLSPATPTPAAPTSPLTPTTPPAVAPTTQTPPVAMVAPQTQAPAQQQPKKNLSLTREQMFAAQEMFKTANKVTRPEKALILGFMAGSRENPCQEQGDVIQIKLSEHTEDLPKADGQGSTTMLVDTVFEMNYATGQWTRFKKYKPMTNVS
UniProt Q5TEU4: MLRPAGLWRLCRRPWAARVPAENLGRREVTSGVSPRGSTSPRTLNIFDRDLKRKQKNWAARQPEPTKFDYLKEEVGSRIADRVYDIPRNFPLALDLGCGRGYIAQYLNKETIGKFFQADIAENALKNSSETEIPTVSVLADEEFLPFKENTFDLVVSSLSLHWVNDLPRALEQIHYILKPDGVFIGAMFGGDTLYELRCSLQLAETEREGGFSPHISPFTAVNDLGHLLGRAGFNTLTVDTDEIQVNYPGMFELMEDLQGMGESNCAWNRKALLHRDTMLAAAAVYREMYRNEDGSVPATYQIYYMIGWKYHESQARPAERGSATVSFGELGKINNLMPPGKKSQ
UniProt O76041: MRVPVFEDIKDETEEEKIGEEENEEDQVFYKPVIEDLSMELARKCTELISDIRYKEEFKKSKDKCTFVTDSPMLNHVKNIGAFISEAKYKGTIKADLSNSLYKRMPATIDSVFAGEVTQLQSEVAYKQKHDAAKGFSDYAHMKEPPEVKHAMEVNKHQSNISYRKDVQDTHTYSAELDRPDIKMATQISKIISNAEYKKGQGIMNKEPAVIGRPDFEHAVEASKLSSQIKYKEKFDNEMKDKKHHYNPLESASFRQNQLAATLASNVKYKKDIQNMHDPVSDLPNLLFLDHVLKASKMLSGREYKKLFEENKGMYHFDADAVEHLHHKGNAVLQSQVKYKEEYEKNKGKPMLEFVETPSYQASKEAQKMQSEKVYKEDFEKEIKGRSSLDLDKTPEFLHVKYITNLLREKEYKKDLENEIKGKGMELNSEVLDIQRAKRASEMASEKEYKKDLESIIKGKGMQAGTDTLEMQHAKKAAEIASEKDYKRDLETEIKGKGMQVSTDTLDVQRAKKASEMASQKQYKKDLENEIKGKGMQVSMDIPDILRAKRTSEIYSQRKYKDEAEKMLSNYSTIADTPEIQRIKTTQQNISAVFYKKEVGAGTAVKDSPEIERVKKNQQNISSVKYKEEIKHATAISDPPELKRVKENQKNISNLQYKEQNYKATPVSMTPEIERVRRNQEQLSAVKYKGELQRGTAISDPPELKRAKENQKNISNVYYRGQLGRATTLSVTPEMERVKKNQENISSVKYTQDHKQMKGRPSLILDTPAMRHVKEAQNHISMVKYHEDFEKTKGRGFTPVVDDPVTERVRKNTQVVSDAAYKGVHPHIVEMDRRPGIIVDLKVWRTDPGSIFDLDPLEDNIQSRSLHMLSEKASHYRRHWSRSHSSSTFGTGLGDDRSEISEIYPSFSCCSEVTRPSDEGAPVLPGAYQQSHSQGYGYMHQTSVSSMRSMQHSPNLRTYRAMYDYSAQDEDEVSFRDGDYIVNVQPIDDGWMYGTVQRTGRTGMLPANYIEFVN
UniProt O43920, whole entry, looked up: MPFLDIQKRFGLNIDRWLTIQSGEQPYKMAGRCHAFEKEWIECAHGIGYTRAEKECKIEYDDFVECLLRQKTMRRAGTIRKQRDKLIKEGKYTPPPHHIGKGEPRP
UniProt Q12986: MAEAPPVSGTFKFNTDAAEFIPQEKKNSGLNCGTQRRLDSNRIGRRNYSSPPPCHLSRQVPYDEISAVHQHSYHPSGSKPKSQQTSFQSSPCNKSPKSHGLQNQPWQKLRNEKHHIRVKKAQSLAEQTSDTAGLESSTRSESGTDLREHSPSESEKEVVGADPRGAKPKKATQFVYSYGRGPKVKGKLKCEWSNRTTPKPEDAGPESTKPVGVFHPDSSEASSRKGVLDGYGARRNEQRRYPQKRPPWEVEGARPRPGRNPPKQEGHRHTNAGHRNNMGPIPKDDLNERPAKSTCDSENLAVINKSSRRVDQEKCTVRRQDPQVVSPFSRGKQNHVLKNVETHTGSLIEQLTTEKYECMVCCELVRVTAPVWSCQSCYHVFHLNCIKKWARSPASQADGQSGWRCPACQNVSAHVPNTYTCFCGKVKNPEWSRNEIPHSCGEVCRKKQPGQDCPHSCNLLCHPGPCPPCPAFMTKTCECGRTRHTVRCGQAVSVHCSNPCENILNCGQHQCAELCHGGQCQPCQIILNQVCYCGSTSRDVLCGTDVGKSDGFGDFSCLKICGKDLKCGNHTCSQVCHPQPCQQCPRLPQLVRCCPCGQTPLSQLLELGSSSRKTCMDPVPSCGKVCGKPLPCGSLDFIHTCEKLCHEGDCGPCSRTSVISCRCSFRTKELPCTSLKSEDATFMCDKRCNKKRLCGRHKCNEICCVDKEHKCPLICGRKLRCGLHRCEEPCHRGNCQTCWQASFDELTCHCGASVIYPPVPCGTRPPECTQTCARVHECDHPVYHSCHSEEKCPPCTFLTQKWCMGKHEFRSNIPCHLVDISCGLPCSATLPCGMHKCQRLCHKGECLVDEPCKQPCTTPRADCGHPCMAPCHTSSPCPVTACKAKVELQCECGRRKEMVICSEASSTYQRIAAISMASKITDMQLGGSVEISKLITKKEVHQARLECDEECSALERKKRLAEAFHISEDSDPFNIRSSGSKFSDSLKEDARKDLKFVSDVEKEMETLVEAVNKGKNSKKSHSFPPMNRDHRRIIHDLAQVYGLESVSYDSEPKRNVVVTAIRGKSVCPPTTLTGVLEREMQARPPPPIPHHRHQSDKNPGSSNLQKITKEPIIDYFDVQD
UniProt P56556, whole entry, looked up: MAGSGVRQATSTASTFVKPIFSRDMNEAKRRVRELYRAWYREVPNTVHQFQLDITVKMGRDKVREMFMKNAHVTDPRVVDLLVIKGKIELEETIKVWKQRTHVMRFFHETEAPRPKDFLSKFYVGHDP

Tests used:
Assay in all cases: log2 fold change, soluble protein after heating vs DMSO (PISA); higher = thermal stabilisation; K562 lysate, 10 uM; active = over 0.2 and 3.5 SD of the protein, either way, in both replicates (recomputed)
[1] = compound: C1=CC=C(C=C1)[C@H](COC2=CC3=C(C=C2)NC(=O)N3)NC(=O)C4=CC=CN(C4=O)CC5=CC(=C(C=C5)F)F
How it was run: (§1)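 Quantification was by TMTpro 16plex LC-MS/MS with equalised channel sums, applied to the supernatant after 21,000xg for 90 min. Samples were crude K562 extract at 1 mg/mL protein in PBS pH 7.4 with 1 mM MgCl2, treated with 10 μM compound for 30 min, heated for 3 min across 48°C-58°C, pooled and brought to 0.5% NP-40 at 4°C. Values are log-two fold changes in thermal stability relative to solvent controls, from duplicates.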

[2] = compound: CC1=C(SC2=C1C(=N[C@H](C3=NN=C(N32)C)CC(=O)N)C4=CC=C(C=C4)Cl)C
How it was run: as §1

[3] = compound: CC1=C2C(=CC=C1)N=C(N(C2=O)C3=CC=CC=C3C)CN4C=NC5=C(N=CN=C54)N
How it was run: as §1

[4] = compound: Cc1sc2c(c1C)C(c1ccc(Cl)cc1)=N[C@@H](CC(=O)OC(C)(C)C)c1nnc(C)n1-2
How it was run: as §1

[5] = compound: c1ccc([C@@H]2C[C@H]2NC2CCNCC2)cc1
How it was run: as §1

Measured: log2 fold change

NFKBIB (UniProt Q15653)
inactive: [1] 0.068 | [2] 0 | [3] 0.014 | [4] 0.055 | [5] -0.185

NDUFA10 (UniProt O95299)
inactive: [1] -0.066 | [2] -0.007 | [3] 0.015 | [4] -0.017 | [5] 0.084

NELFCD (UniProt Q8IXH7)
inactive: [1] -0.035 | [2] 0.023 | [3] 0.018 | [4] 0.003 | [5] 0.025

NELFA (UniProt Q9H3P2)
inactive: [1] -0.055 | [2] 0.033 | [3] -0.022 | [4] -0.037 | [5] 0.054

NDUFAF5 (UniProt Q5TEU4)
inactive: [1] 0.078 | [2] 0.016 | [3] 0.026 | [4] -0.174 | [5] 0.004

NEBL (UniProt O76041)
inactive: [1] -0.074 | [2] 0.011 | [3] 0.047 | [4] 0.043 | [5] 0.014

NDUFS5 (UniProt O43920)
inactive: [1] -0.04 | [2] 0.045 | [3] 0.017 | [4] -0.007 | [5] -0.004

NFX1 (UniProt Q12986)
inactive: [1] 0.02 | [2] -0.03 | [3] -0.045 | [4] 0.048 | [5] -0.075

NDUFA6 (UniProt P56556)
inactive: [1] -0.006 | [2] -0.058 | [3] -0.036 | [4] -0.04 | [5] 0.079

Quoted from the listing (2 entries):
NDUFAF5 (UniProt Q5TEU4)
inactive: [1] 0.078 | [2] 0.016 | [3] 0.026 | [4] -0.174 | [5] 0.004

NEBL (UniProt O76041)
inactive: [1] -0.074 | [2] 0.011 | [3] 0.047 | [4] 0.043 | [5] 0.014
